# Some of the results follow. The calls rarely recur for the same compound in another form.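 Kinases were expressed as nanoluciferase fusions in K562 cells and luminescence was read every 4 h between 2 and 18 h as percent of control, DMSO set to 100% and a positive control to 0%. A time point counts as decreased when the signal drops significantly (2 sigma). The hit call is the authors' own, does not follow from the count of time points alone, and its rule is not shown.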
# By UniProt entry, the sequences of proteins in these tests, tags left out. Where a name states a change or a piece, a line headed by the entry shows the natural chain unless it says otherwise.
# UniProt Q01974, whole entry: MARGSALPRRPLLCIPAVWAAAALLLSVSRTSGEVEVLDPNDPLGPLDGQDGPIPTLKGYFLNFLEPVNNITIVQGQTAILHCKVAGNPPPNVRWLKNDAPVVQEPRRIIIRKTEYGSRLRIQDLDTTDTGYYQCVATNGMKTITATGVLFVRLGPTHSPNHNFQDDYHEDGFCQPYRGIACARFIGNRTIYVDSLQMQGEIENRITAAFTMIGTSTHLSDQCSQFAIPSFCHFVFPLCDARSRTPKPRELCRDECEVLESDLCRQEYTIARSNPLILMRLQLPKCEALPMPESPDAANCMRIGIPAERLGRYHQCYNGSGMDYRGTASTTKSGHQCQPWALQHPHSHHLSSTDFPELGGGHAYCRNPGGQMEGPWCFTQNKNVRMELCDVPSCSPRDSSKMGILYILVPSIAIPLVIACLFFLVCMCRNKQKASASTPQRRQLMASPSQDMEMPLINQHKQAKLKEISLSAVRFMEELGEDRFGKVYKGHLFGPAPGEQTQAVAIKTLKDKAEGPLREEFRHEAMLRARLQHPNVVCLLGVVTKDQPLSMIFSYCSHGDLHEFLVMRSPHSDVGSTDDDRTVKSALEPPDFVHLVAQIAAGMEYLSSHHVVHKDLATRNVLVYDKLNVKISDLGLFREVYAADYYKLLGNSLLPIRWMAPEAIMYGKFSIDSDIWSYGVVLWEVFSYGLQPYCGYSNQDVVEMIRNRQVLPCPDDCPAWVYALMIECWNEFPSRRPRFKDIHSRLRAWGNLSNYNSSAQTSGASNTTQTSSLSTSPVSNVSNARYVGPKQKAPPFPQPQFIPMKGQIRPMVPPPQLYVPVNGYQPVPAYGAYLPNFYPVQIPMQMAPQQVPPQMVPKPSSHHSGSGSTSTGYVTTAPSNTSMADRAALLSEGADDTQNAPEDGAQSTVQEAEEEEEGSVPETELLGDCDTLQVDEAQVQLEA
# UniProt Q15418, whole entry: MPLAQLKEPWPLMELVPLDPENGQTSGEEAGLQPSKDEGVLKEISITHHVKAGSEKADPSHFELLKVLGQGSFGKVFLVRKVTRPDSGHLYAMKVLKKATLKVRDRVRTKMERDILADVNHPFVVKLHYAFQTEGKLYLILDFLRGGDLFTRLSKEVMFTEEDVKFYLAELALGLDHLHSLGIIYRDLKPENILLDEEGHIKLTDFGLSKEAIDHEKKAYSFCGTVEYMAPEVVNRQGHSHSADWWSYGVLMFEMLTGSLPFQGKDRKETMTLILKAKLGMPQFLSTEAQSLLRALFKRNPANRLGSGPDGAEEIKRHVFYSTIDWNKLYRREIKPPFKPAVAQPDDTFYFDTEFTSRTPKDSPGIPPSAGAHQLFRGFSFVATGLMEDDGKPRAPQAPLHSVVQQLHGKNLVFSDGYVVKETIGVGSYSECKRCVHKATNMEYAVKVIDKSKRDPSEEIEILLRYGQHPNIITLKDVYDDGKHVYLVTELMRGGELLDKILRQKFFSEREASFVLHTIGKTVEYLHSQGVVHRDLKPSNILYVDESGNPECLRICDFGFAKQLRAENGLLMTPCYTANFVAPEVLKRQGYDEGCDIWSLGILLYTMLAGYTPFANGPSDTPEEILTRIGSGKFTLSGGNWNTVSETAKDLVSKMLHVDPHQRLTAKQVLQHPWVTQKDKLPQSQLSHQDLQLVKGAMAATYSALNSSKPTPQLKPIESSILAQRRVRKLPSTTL
# UniProt Q9Y6E0: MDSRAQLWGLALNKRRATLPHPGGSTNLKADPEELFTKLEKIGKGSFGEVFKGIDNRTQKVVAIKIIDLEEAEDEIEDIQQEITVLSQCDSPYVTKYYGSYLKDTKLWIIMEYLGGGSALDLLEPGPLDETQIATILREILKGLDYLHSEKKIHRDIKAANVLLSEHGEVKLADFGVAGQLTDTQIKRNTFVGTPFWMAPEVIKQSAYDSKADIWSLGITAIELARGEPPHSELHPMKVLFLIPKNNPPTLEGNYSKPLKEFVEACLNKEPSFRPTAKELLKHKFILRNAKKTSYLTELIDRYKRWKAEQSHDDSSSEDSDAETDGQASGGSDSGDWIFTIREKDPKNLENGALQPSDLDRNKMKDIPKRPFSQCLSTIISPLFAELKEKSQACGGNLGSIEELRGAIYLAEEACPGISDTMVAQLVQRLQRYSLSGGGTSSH
# UniProt Q15208: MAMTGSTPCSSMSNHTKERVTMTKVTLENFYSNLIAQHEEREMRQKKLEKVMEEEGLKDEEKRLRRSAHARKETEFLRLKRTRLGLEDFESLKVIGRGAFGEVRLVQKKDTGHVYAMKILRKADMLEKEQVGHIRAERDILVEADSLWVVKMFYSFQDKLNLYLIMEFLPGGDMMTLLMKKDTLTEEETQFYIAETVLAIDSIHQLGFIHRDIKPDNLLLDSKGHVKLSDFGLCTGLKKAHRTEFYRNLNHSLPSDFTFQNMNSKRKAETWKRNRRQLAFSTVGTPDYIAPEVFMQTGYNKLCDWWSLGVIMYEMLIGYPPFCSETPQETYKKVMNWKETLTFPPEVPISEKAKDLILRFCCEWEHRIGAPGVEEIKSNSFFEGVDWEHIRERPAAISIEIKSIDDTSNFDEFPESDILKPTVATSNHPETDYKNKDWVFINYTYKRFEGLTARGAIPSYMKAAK
# UniProt P42680: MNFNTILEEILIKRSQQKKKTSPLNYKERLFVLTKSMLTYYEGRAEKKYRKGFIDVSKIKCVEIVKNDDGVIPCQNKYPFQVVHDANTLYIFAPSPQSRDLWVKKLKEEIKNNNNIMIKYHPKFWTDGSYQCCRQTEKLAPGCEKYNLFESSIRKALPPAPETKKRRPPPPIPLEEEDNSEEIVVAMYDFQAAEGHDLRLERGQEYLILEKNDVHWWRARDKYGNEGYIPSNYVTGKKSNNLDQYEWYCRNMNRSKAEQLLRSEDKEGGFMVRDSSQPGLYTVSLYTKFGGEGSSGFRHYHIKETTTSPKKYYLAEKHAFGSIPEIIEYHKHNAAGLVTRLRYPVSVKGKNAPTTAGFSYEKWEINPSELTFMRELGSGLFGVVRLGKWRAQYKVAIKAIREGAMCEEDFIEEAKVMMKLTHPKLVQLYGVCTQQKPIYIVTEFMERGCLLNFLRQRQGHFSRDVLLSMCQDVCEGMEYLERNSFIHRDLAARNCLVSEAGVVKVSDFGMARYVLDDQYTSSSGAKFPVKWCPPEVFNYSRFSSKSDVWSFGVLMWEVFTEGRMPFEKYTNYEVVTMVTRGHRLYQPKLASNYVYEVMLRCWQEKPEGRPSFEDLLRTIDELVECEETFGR
# UniProt P29597: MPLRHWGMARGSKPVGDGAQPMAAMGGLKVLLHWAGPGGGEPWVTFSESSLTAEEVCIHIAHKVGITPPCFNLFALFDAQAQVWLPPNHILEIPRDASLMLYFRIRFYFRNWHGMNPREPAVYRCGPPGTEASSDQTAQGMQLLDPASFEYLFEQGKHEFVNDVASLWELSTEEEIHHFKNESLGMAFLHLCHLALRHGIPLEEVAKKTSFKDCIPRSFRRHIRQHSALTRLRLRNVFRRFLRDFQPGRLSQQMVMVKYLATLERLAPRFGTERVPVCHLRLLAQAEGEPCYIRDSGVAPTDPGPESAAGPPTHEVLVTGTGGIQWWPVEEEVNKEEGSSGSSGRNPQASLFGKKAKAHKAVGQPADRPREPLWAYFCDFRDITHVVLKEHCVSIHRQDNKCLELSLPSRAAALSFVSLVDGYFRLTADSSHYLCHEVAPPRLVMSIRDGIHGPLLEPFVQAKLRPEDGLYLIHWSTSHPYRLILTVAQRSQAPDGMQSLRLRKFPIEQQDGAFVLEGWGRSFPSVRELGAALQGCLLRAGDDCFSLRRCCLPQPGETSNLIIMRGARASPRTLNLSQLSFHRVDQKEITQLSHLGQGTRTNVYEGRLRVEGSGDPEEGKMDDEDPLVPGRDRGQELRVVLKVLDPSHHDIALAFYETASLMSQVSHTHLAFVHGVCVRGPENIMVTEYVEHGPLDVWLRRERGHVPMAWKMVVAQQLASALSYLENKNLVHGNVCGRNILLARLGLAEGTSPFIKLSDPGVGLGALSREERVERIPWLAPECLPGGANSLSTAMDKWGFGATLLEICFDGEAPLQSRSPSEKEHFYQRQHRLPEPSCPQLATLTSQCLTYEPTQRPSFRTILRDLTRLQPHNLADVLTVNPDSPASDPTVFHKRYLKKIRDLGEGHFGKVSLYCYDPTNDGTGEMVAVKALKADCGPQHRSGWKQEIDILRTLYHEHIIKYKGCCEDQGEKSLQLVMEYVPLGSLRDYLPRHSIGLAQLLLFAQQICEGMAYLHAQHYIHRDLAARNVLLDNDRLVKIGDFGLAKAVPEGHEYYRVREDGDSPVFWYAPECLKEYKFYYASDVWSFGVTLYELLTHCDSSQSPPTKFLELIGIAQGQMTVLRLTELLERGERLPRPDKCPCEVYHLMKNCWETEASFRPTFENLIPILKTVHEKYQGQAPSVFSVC
# UniProt Q6PHR2: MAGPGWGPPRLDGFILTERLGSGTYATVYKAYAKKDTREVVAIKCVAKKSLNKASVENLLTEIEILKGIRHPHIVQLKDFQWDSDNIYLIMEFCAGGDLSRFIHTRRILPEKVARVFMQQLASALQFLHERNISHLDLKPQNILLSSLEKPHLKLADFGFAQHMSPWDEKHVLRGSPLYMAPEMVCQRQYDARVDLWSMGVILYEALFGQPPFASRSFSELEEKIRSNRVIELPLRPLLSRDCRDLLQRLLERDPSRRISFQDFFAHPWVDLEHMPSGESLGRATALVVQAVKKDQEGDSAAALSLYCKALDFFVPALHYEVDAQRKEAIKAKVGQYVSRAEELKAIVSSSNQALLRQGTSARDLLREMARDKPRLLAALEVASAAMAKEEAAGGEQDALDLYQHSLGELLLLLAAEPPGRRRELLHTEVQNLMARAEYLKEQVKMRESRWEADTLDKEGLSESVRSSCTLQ
# UniProt P07947, whole entry, looked up: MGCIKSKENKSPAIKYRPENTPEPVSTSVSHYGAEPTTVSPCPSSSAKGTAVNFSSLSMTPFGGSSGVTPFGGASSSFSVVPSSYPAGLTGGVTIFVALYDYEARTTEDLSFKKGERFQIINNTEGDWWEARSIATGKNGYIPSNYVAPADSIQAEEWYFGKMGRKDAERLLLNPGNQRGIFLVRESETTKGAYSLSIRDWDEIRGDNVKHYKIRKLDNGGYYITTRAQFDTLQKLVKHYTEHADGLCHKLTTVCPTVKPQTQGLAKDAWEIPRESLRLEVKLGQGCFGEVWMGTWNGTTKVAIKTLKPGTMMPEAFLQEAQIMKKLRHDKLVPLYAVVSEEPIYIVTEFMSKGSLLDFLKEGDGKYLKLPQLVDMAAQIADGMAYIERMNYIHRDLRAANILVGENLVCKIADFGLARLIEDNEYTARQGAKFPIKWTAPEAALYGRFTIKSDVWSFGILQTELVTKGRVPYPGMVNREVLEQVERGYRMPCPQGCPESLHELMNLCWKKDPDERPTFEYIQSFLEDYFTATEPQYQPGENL
# UniProt P11802: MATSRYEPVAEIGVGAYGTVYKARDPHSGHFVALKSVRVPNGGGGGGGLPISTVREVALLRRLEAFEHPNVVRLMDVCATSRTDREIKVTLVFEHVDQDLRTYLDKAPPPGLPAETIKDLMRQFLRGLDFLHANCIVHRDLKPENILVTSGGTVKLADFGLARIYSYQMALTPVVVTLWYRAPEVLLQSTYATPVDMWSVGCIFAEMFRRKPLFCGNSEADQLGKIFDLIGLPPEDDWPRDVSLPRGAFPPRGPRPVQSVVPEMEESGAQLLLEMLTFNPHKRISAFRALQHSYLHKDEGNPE
# UniProt P50613: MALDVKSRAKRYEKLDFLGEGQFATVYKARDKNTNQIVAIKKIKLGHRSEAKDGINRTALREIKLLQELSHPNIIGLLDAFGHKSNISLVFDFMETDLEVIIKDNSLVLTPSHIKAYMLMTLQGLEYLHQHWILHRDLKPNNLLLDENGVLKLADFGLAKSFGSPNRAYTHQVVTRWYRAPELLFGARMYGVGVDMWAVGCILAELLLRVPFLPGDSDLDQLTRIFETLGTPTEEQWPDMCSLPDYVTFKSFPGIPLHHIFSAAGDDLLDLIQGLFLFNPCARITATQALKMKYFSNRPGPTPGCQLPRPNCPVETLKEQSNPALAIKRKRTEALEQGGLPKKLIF
# UniProt P50750, whole entry: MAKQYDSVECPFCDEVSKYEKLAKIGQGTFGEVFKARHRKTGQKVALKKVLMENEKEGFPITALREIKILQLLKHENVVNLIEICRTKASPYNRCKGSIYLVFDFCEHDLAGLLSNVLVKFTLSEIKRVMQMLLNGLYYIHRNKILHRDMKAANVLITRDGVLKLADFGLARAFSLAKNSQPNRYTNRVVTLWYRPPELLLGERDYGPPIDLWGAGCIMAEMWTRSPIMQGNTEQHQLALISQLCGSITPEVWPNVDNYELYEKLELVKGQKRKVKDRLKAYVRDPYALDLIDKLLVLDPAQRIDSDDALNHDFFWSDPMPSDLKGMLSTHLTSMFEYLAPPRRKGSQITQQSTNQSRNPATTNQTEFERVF
# Experiments:
# Conditions in all cases: K562; 2-18 h
# ROR2 = ROR2 (UniProt Q01974); experiment: number of time points (of 5) at which kinase-Nluc abundance scored as decreased, DMSO-normalised (count); higher = more persistent destabilization
# RPS6KA1 = RPS6KA1 (UniProt Q15418); experiment: as above
# SPHK1 = SPHK1 (UniProt Q9NYA1); experiment: as above
# SRC = SRC (UniProt P12931); experiment: as above
# STK24 = STK24 (UniProt Q9Y6E0); experiment: as above
# STK38 = STK38 (UniProt Q15208); experiment: as above
# SYK = SYK (UniProt P43405); experiment: as above
# TEC = TEC (UniProt P42680); experiment: as above
# TYK2 = TYK2 (UniProt P29597); experiment: as above
# ULK3 = ULK3 (UniProt Q6PHR2); experiment: as above
# YES1 = YES1 (UniProt P07947); experiment: as above
# ZAK = ZAK (UniProt Q9NYL2); experiment: as above
# ZAP70 = ZAP70 (UniProt P43403); experiment: as above
# CDK4 = CDK4 (UniProt P11802); experiment: number of time points (of 4; 2 h point missing) at which kinase-Nluc abundance scored as decreased, DMSO-normalised (count); higher = more persistent destabilization
# CDK7 = CDK7 (UniProt P50613); experiment: as above
# CDK9 = CDK9 (UniProt P50750); experiment: as above
SMILES,number of time points (ROR2),number of time points (RPS6KA1),number of time points (SPHK1),number of time points (SRC),number of time points (STK24),number of time points (STK38),number of time points (SYK),number of time points (TEC),number of time points (TYK2),number of time points (ULK3),number of time points (YES1),number of time points (ZAK),number of time points (ZAP70),number of time points (CDK4),number of time points (CDK7),number of time points (CDK9)
CCOC(=O)c1c(/C(C#N)=C\N)c2ccc(Cl)c(Cl)c2n1C (10 µM),0,0,0,0,0,0,0,0,0,0,0,0,0,0,0,0
Cc1ccccc1-n1c(Cn2cnc3c(N)ncnc32)nc2cccc(C)c2c1=O (10 µM),0,0,0,0,0,0,0,0,0,0,0,0,0,0,0,0
C[C@H]1CC[C@]2(NC1)O[C@H]1C[C@H]3[C@@H]4CC[C@H]5C[C@@H](O)CC[C@]5(C)[C@H]4CC[C@]3(C)[C@H]1[C@@H]2C [Tomatidine] (2 µM),0,0,0,0,0,0,0,0,0,0,0,0,0,0,0,0
COC[C@H]1OC(=O)c2coc3c2[C@@]1(C)C1=C(C3=O)[C@@H]2CCC(=O)[C@@]2(C)C[C@H]1OC(C)=O [Wortmannin] (2.5 µM),0,0,0,0,0,0,0,0,3,0,0,0,0,0,3,0
